What all share (assay): co-IP; transfected HEK293 or HEK293T cells; lysis in 20 mM Tris-HCl pH 7.5, 150 mM NaCl, 1 mM EDTA, 0.5% NP-40; anti-Flag M2 agarose or anti-HA agarose, 2 hours at 4°C; immunoblot; in some panels cells treated with MLN4924, MG132 or 5 ng/ml TNF-α
Background: Immunoblotting shows a protein as a band on a membrane.

Sequences of proteins named here, by UniProt entry; tags and fusion partners are left off.
UniProt Q13616: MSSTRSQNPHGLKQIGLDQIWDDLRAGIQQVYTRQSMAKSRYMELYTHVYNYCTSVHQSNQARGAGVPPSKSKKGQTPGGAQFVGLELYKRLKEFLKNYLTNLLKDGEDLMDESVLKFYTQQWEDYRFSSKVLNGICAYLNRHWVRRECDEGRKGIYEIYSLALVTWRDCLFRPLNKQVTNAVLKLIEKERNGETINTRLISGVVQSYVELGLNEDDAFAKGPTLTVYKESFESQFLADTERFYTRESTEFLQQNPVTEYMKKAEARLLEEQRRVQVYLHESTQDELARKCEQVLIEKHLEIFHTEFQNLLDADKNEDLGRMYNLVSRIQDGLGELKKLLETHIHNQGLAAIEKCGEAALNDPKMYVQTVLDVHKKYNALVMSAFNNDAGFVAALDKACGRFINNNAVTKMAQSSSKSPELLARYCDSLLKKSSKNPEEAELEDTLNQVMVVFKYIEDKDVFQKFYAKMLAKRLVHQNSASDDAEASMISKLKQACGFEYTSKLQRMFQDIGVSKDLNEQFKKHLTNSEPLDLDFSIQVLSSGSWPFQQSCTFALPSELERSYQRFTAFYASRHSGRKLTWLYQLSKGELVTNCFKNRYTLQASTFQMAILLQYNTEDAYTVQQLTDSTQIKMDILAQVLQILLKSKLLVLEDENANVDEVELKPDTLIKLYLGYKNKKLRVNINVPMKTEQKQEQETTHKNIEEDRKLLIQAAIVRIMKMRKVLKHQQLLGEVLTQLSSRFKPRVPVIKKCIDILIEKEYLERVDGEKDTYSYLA

Assay [1] addresses T1, Flag-Brap2 WT (BRCA1-associated protein 2) (human) (UniProt Q7Z569).
T1 sequence: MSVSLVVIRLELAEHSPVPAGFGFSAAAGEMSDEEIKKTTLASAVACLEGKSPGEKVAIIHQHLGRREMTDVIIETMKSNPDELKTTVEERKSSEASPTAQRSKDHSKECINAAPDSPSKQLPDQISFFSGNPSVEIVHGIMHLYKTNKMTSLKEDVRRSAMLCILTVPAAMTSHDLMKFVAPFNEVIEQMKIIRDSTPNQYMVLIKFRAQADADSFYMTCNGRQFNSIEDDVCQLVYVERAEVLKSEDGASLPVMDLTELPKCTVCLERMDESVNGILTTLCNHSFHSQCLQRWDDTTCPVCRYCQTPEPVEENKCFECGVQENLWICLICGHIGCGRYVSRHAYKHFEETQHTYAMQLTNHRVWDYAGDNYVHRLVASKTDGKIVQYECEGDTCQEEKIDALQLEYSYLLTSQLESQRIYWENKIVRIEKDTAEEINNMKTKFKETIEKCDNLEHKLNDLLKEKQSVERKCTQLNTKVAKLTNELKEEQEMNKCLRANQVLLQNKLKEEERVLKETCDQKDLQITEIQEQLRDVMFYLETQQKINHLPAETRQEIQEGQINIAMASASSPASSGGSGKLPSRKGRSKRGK

The target of another assay is HA-Cul1 (UniProt Q13616).
Another assay concerns the target T2, HA-Brap2 WT (human) (UniProt Q7Z569).
T2 sequence: T1 sequence

Changes are numbered by the printed parent chain. Results are given in words; binding and its absence hold for the method and conditions named. Binding seen in cells or lysates may run through a third protein. Some results given as binding are weak or reduced against the parent protein; the word gives no strength. Where a sequence is shown, tags or fusion partners need not be part of it.

This note sets out measurements from article PMC3598860.

B1: Flag-Brap2 WT (BRCA1-associated protein 2) (protein, UniProt Q7Z569 1-592)
chain: T1 sequence
Turning to B1, the binding entry (in assay [1]; with HA-Cul1) was “binds” in each case.

B2: Flag-Brap2 KR (lysine-432 replaced with arginine) (protein, UniProt Q7Z569 1-592)
chain: T1 sequence with K432R
For B2, the binding entry with HA-Brap2 WT (human) is on record as “binds”.
